These are yes or no findings as the source states them, for the method shown. A result given as binding can be weak or reduced; the word gives no strength. Tags and fused reporters may be left off the sequences shown. For some assays here: In cells and extracts the contact can be indirect.
Legend:
[1] = target: GST-Mdm2 fusion protein, N-terminus of Mdm2; experiment: GST-Mdm2 pull-down from cell lysates, anti-p73 immunoblot
[2] = target: GST-Mdm2 fusion protein, full-length Mdm2; experiment: as above
Mdm2 [3] = experiment: anti-Flag IP from 293T lysates, anti-Mdm2 Western
Mdm2 [4] = experiment: anti-Flag IP from 293T lysates, anti-Mdm2 immunoblot
Mdm2 [5] = experiment: summary of co-IP and pull-down results

Measured: binding

B1: Flag-tagged p73β (protein, UniProt O15350-2 1-499, looked up, not shown: small tags and cut ends)
chain: MAQSTATSPDGGTTFEHLWSSLEPDSTYFDLPQSSRGNNEVVGGTDSSMDVFHLEGMTTSVMAQFNLLSSTMDQMSSRAASASPYTPEHAASVPTHSPYAQPSSTFDTMSPAPVIPSNTDYPGPHHFEVTFQQSSTAKSATWTYSPLLKKLYCQIAKTCPIQIKVSTPPPPGTAIRAMPVYKKAEHVTDVVKRCPNHELGRDFNEGQSAPASHLIRVEGNNLSQYVDDPVTGRQSVVVPYEPPQVGTEFTTILYNFMCNSSCVGGMNRRPILIIITLEMRDGQVLGRRSFEGRICACPGRDRKADEDHYREQQALNESSAKNGAASKRAFKQSPPAVPALGAGVKKRRHGDEDTYYLQVRGRENFEILMKLKESLELMELVPQPLVDSYRQQQQLLQRPSHLQPPSYGPVLSPMNKVHGGMNKLPSVNQLVGQPPPHSSAATPNLGPVGPGMLNNHGHAVPANGEMSSSHSAQSMVSGSHCTPPPPYHADPSLVRTWGP
binds: all assays above

Source: US20020132977A1
